Test results from PMC10163288.
The list shows a part of the results.

B1: il2ra_site1_1z92_normal_mot_HHH_b1_02362_af2_000000131_0001_1_17_H_._HHH_b1_08295_0001_0000100004_0000001_0 (protein)
chain: SSSDLEVLKRLDEFVLELAEEYGLDEEVARRLLHTVSKLFARGVSEEEIEKILEEIVEEYKSSSS
B2: il2ra_site2_2erj_normal_mot_HHH_b1_02534_000000050_0001_23_39_H_._HHH_b2_03380_0001_0000200004_0000001_0_af2pred_0001_af2pred (protein)
chain: SSSSSSEEDRERNARRALERARKIEDKEKVKELLRVAELAAESVNDEELEEEVREVAEELSSSSS
B3: il2ra_site2_2erj_sap_10_mot_HHH_b1_07182_000000298_0001_1_15_H_._HHH_b1_06428_af2_0001_0000200003_0000001_0_0001 (protein)
chain: SSSSSLKELYELANRLLHALSNGDEELFEELLEEAKKLAEELNSDTVKEMLERLERLLRDSSSSS
B4: il2ra_site2_3nfp_normal_mot_HHH_b1_00660_af2_000000090_0001_40_57_H_._HHH_b2_06895_0001_0000100004_0000001_0 (protein)
chain: SSSSDEEVRQLLERVEELLEEGDYEEARRLLSRAALLAYEAGDFELFARIQELRFLLLRLSSSSS
B5: il2ra_site2_2erj_normal_mot_HHH_b2_01204_af2_000000056_0001_19_34_H_._HHH_b2_02030_0001_0000500011_0000001_0 (protein)
chain: SSSSSDEEEVEELLERAEKSDDLREIYKLLVEALHIASKTNNDELQELITQVAERIARGSSSSSS
B6: il2ra_site1_1z92_normal_mot_30aa582283ecb64a35315be28fff3e94_0001_000000110_0001_35_49_H_._HHH_b2_06812_af2_0001_0000400063_0000001_0_af2pred_0001_af2pred_1 (protein)
chain: SSSSSLEKQAKKLVEDAVRLAGLSEEEKEQLEELAKELVEEGVDSIEIARILEEFVKRLLSSSSS
B7: il2ra_site2_2erj_normal_mot_HHH_b1_06571_000000096_0001_1_16_H_._HHH_b1_07788_0001_0000900011_0000001_0 (protein)
chain: SSSSDLEEELERLIEAALELVRRAGNPELAELVEELLERFKEEGDPRYAALAYKLLREAHSSSSS
B8: il2ra_site2_3nfp_sap_13_mot_HHH_b2_07186_000000286_0001_42_55_H_._HHH_b1_01394_0001_0000300011_0000001_0_0001 (protein)
chain: SDEVAQIMEELSKRNDPVAFLVYLIARLAFERNDPELQKLAREVLQIAKKNPEEAKELAEEILER
B9: il2ra_site2_2erj_sap_26_mot_46479c6699afdbd8d5d5faf00326b0b9_0001_1_af2_000000112_0001_34_47_H_._HHH_b2_02360_af2_0001_0000400012_0000001_0_0001 (protein)
chain: SSSSSDEEELWEEVAEAVAKAAHIPDEEEVERLLEEAERLARELGNETLQRYVELAKEHASSSSS
B10: il2ra_site1_2b5i_sap_17_mot_HHH_b1_01346_af2_000000027_0001_1_20_H_._HHH_b2_01738_0001_0000100001_0000001_0_0001_af2pred_dldesign_0_af2pred (protein)
chain: SSSSSPVLDEAREDILEAAEKGDKELLEHLLSQLQKYYDLTKDPRVKELIELALEELEKLSSSSS
B11: il2ra_site1_3nfp_normal_mot_HHH_b1_01231_af2_000000170_0001_1_16_H_._HHH_b1_03581_0001_0000200016_0000001_1_af2pred_0001_af2pred_swapped (protein)
chain: SSSSSREEVEELVEEAREAAEEGDRKKARELVRAILELAKETGDPEISKLLEELLEFLWRLSSSS
B12: il2ra_site1_1z92_sap_19_mot_HHH_b2_05687_000000267_0001_41_56_H_._ems_3hM_3687_0001_0000200012_0000001_0_0001 (protein)
chain: SSSSDEEVLELWKRVAELMREGNIEEAKELVEEAIRLAREAGDERLAKDLERFLERIEESDSSSS
B13: il2ra_site2_3nfp_sap_23_mot_HHH_b1_06158_af2_000000274_0001_1_17_H_._HHH_b1_03883_0001_0000300010_0000001_0_0001 (protein)
chain: SSSSSSRAIEVALEAARQASENIDDEELRERLEELIEELEEKNDPEVALEIYKLLREIYKSSSSS
B14: il2ra_site2_3nfp_sap_23_mot_32bc48042d8ba3d1c0734e77886dd373_0001_1_000000143_0001_36_50_H_._HHH_b1_05006_0001_0000500022_0000001_1_0001_af2pred_0001_1_af2pred_ … (protein)
chain: SSSSSSSDEERVEELLEEAKEIDDEHEFFAVLLLALEIALESRNEELERLVKKVAKEFRSSSSSS
B15: il2ra_site1_3nfp_sap_23_mot_HHH_b1_08723_000000044_0001_1_15_H_._HHH_b2_07756_0001_0000200015_0000001_0_0001_af2pred_0001_af2pred_swapped (protein)
chain: SSSSDVEERVKELLEEAKELLEEGNPEEAAKVLKEALRLAREADDPELVELVARVQEEIARSSSS
B16: il2ra_site1_2b5i_normal_mot_0e5a94e4a5addaac739760efb25f0f5d_0001_000000246_0001_18_32_H_._HHH_b1_03690_0001_0000500022_0000001_0_af2pred_dldesign_0_af2pred (protein)
chain: SSSSSSSLEKAEKAVAEARALYEAGKPREARKLLIKTLYECELAGDEEAVKVIRDELERLESSSS
B17: il2ra_site2_3nfp_normal_mot_HHH_b1_02359_000000112_0001_1_19_H_._ems_3hC_696_af2_0001_0000500010_0000001_0 (protein)
chain: TERLIKLAKIAAELLRREWKDDPEIKRLVEEALEELEQAEEENDEELITEVAQKIMEIFEEATKS
B18: il2ra_site1_1z92_sap_18_mot_HHH_b1_07828_af2_000000107_0001_18_34_H_._HHH_b1_01450_0001_0000200015_0000001_0_0001_af2pred_0001_af2pred (protein)
chain: SSSSSRELAKIISKLVAEFKLSLEDSRELLELALELLERGYSEEEIEELLKELAKELKEGSSSSS
B19: il2ra_site2_2erj_normal_mot_90f6a21de4ed711cb697bb9f61d9c40c_0001_af2_000000135_0001_36_50_H_._HHH_b2_03327_0002_0000300012_0000001_0_af2pred_0001_af2pred_1 (protein)
chain: SSSDREEVAKRVVEELVEELGLDEEAQRLLELAAELAIEAGLSPEQIEQYLRLLAEQLLEIASSS
B20: il2ra_site1_3nfp_sap_12_mot_HHH_b2_04441_af2_000000141_0001_1_20_H_._HHH_b1_03000_af2_0001_0000400056_0000001_0_0001 (protein)
chain: DKVVEFLFRQLRRTKPPEEVVKELLEDAERILGDPEAAEEIVRRVLKALGFSPEEIEELIEEARK
B21: il2ra_site2_3nfp_sap_23_mot_HHH_b2_02049_000000004_0001_42_55_H_._HHH_b2_04533_af2_0001_0000100001_0000001_0_0001 (protein)
chain: DEEEEIERLLEELRKQFPPERVVFIVSAELWHLGIDPREILELLQEVLEKLNDPELERVLEELRT
B22: il2ra_site2_3nfp_sap_18_mot_HHH_b1_02297_000000279_0001_41_58_H_._HHH_b2_03552_0001_0000100005_0000001_0_0001 (protein)
chain: SSSSSDEEEVRELLEEAERLAENGNPEEALQLLLEAASIAWRNNNEELYELVSRVAHELISSSSS
B23: il2ra_site2_2erj_normal_mot_HHH_b1_08162_af2_000000254_0001_40_56_H_._HHH_b2_02886_af2_0001_0000800019_0000001_0 (protein)
chain: SSSSDEEEVEELLERAKELLEEGNPEEAFAVVAEAALLAAEAGSPLFEEASRIFEELYHLQSSSS
B24: il2ra_site2_3nfp_sap_15_mot_HHH_b2_04386_000000117_0001_36_52_H_._HHH_b1_03149_0001_0000200016_0000001_1_0001 (protein)
chain: SSSSDHREKYLKAALALLEWAIERRDEYVVESLIEVLEAAIEDANDEEAEELLERLKREFGSSSS
B25: il2ra_site2_2erj_normal_mot_8a316d4779eb53efc793250774d75e68_0001_af2_000000043_0001_18_32_H_._03d1612f130aec461e27f81ac552cf35_0001_af2_0001_0000100001_0000001 … (protein)
chain: SEEVDRISREAYEKNDPRLASVAAEVAWLILRDPRLEEEVEELLQRLERGELPPEEVLKLLEELK
B26: il2ra_site2_2erj_sap_22_mot_HHH_b2_04755_af2_000000255_0001_22_38_H_._HHH_b1_02474_0001_0001400015_0000001_0_0001_af2pred_0001_af2pred (protein)
chain: SSSSSDKEEVEERVEELLEEARKIPDPREALKVLQEASELAAKLDDDELLEEIAKVARELSSSSS
B27: il2ra_site1_1z92_sap_14_mot_3afbd42359c492d9a5ba12d7e5b15de5_0001_000000167_0001_17_33_H_._HHH_b2_02962_0001_0000500018_0000001_0_0001 (protein)
chain: TLERDAELALKLAPSPKALRKVLEWALRTIGDPEERRKFIEIVEKIARELGNEELEEAAEEALRK
B28: il2ra_site1_1z92_sap_10_mot_dddd11d5de81826a7497a0a2545a4374_0001_1_000000154_0001_35_49_H_._c6d4a73ca639c749d569e70f45b36260_0001_af2_0001_0000300024_0000001_0 … (protein)
chain: SSSSSSNEELRRLLDELEAAKAAGDLARARALLERLRALAEERKSPRLLAFVEWAREELESSSSS
B29: il2ra_site1_1z92_sap_18_mot_HHH_b1_03544_000000035_0001_24_41_H_._HHH_b1_08306_0001_0000500045_0000001_0_0001 (protein)
chain: SSSSDAREKFAERVVEDFVKLAGLDEEEKEQLEEVARELVERGLSNMEIARELARLAEELSSSSS
B30: il2ra_site1_1z92_sap_18_mot_HHH_b1_07316_af2_000000150_0001_43_56_H_._HHH_b2_07834_af2_0001_0000500024_0000001_0_0001_af2pred_0001_af2pred (protein)
chain: SSSSDEEVLREDLENLIKFASSHENFRKVVEKLLKLDRQLDEELVELLEELAEEVLKEFEESSSS
B31: il2ra_site2_3nfp_normal_mot_HHH_b1_06589_000000230_0001_37_50_H_._HHH_b2_02495_0001_0000300051_0000001_0_af2pred_0001_af2pred (protein)
chain: SSSSSSDYRELLAKASEIAYERNDSEAFALLARLAYRYLKEGDPEIKEELEEILRELESSSSSSS
B32: il2ra_site1_2b5i_normal_mot_HHH_b1_06428_000000224_0001_1_17_H_._HHH_b1_02461_0001_0000700038_0000001_0_af2pred_dldesign_0_af2pred (protein)
chain: SSSSSSLAEARRLLLETEELLKAGKLEELAKLKKRIDALKAASDDPKVKKIADLINEALESSSSS
B33: il2ra_site1_3nfp_sap_16_mot_HHH_b1_00678_af2_000000150_0001_43_56_H_._585a058155b04fe6777c8c1b4ba6d3d7_0001_0001_0000100001_0000001_0_0001_af2pred_0001_af2pred_ … (protein)
chain: SAMEAAAREAKKEGTLEELVEEAIKELEENANIPPEEALKLLEKDARRLGDEDLVEVIEKLAEER
B34: il2ra_site1_3nfp_sap_18_mot_HHH_b2_03549_000000219_0001_1_18_H_._HHH_b1_06169_0001_0000200013_0000001_0_0001 (protein)
chain: NDERVASKLVEEAARSAGVDEVEVSVSNGTLHVEVSGGDRAARRVEEAAKQIAEWLGVEVEVTFE
B35: il2ra_site2_2erj_sap_20_mot_35d2dc24e2c4431f89e6f806b163ecf8_0001_af2_000000103_0001_35_49_H_._HHH_b1_04470_af2_0001_0000100002_0000001_0_0001 (protein)
chain: SSSSDIEEEIKKLIEEAEELEEEGDPEKALRVLWEAARLAFENNNAELSVRIARLAMELDSSSSS
B36: il2ra_site1_2b5i_normal_mot_HHH_b2_02543_000000227_0001_1_16_H_._HHH_b1_05698_0001_0000400012_0000001_0_af2pred_dldesign_0_af2pred (protein)
chain: SSSSDRRELIEKLEELYKKLAAKGDDETEDELYELFLEAVKSNDIELLEKALKLAEAALEKSSSS
B37: il2ra_site1_2b5i_sap_10_mot_HHH_b1_06833_000000178_0001_1_19_H_._HHH_b1_05697_0001_0000400022_0000001_0_0001_af2pred_dldesign_0_af2pred (protein)
chain: SSSSSAKELVDELLKEAERLYLAGEPELARRLLILARRVAKKAKDPELVKKVEDFEKKLLESSSS

Target: il2ra, P01589
Assay: yeast display titration

Apparent Kd, inactive:
B1 no binding seen
B2 no binding seen
B3 no binding seen
B4 no binding seen
B5 no binding seen
B6 no binding seen
B7 no binding seen
B8 no binding seen
B9 no binding seen
B10 no binding seen
B11 no binding seen
B12 no binding seen
B13 no binding seen
B14 no binding seen
B15 no binding seen
B16 no binding seen
B17 no binding seen
B18 no binding seen
B19 no binding seen
B20 no binding seen
B21 no binding seen
B22 no binding seen
B23 no binding seen
B24 no binding seen
B25 no binding seen
B26 no binding seen
B27 no binding seen
B28 no binding seen
B29 no binding seen
B30 no binding seen
B31 no binding seen
B32 no binding seen
B33 no binding seen
B34 no binding seen
B35 no binding seen
B36 no binding seen
B37 no binding seen

Reprinted at random: two records from the list
Apparent Kd, inactive:
B20 no binding seen
B28 no binding seen
